# Measurements published in US20230405004A1, “COMBINATION THERAPY OF DONEPEZIL AND TADALAFIL FOR THE TREATMENT OF ALZHEIMER'S DISEASE OR COGNITIVE IMPAIRMENT” (NEURORIVE INC, priority 2020, published 2023).
# Test system: mouse brain slice treated with 3 μM amyloid beta
# Conditions: amyloid beta 3 μM + donepezil 100 nM alone
smiles,measurement,value
"COc1cc2c(cc1OC)C(=O)C(CC1CCN(Cc3ccccc3)CC1)C2 (stereo not shown) [Donepezil, donepezil]",Synaptic long-term potentiation (Increase or decrease compared to Amyloid beta group),5.71%
